In article PMC3778836 one finds binding data, which are given here for eight molecules.

Chains of the proteins cited; added tags and fusions are not shown.
UniProt Q13535: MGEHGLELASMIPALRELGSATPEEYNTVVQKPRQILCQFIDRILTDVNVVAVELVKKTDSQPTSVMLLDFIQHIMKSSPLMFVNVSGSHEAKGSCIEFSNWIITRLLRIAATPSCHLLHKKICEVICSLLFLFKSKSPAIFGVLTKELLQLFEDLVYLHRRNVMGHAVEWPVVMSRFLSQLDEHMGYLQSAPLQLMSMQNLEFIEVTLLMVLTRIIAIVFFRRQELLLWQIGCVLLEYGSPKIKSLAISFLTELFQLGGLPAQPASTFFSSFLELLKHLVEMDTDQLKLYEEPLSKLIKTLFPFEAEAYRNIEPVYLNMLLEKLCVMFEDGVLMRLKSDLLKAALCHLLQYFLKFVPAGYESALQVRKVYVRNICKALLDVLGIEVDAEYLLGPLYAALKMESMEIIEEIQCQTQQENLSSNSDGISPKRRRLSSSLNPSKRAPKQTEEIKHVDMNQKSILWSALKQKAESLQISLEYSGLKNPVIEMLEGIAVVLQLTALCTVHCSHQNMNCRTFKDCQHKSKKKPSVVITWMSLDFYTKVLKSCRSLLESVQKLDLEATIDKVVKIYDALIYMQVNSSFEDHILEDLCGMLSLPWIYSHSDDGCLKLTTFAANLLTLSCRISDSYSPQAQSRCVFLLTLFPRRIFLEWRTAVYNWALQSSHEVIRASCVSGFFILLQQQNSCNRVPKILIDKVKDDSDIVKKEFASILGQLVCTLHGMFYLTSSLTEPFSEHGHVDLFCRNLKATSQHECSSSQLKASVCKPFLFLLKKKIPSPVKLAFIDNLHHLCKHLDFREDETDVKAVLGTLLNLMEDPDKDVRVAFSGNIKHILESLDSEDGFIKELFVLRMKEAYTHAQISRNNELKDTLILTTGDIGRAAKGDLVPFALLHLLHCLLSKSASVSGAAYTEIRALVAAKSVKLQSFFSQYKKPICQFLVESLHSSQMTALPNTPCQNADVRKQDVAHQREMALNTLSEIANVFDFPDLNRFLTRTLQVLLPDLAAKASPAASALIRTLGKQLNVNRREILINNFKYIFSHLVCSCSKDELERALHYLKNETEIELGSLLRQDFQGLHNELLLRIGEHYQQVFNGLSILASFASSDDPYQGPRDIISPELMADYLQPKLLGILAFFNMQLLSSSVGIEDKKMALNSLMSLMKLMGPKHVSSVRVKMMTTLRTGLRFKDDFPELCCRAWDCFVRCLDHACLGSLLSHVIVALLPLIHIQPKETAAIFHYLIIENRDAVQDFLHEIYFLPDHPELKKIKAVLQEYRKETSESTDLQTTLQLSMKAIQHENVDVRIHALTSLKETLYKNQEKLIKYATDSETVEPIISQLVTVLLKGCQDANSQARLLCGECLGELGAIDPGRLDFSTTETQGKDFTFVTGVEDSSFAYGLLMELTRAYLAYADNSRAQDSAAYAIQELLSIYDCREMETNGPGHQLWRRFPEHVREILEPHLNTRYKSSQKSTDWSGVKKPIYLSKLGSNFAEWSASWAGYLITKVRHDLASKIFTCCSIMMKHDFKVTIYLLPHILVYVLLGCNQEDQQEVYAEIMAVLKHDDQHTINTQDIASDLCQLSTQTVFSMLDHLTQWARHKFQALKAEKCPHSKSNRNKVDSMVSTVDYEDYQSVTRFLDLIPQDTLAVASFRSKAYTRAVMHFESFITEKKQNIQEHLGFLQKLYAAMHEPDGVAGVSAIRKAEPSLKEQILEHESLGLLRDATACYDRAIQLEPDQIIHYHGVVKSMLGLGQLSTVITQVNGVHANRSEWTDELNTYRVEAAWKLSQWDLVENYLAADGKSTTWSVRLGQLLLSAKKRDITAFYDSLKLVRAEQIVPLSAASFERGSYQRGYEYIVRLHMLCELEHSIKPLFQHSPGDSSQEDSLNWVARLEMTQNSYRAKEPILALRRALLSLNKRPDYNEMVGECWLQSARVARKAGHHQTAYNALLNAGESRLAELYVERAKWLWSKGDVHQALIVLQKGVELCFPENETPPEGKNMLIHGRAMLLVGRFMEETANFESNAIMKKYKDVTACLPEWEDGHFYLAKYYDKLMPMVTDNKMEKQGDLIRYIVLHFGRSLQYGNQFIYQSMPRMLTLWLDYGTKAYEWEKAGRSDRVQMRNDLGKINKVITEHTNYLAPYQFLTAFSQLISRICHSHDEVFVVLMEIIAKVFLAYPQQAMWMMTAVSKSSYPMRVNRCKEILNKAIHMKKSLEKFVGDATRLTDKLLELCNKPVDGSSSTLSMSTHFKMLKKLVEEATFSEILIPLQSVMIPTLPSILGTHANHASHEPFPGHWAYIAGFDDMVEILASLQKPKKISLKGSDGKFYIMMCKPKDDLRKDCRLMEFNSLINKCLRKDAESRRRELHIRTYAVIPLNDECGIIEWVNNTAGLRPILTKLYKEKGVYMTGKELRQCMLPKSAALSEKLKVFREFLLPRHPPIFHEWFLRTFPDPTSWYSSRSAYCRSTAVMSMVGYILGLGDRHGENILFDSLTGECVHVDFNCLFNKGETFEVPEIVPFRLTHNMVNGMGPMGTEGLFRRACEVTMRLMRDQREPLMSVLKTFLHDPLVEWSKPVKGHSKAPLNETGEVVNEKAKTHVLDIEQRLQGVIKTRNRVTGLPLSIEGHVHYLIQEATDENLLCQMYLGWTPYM

Assay [1] deals with T1, FLAG-HA epitope-tagged HELQ (human) (UniProt Q8TDG4).
T1 sequence: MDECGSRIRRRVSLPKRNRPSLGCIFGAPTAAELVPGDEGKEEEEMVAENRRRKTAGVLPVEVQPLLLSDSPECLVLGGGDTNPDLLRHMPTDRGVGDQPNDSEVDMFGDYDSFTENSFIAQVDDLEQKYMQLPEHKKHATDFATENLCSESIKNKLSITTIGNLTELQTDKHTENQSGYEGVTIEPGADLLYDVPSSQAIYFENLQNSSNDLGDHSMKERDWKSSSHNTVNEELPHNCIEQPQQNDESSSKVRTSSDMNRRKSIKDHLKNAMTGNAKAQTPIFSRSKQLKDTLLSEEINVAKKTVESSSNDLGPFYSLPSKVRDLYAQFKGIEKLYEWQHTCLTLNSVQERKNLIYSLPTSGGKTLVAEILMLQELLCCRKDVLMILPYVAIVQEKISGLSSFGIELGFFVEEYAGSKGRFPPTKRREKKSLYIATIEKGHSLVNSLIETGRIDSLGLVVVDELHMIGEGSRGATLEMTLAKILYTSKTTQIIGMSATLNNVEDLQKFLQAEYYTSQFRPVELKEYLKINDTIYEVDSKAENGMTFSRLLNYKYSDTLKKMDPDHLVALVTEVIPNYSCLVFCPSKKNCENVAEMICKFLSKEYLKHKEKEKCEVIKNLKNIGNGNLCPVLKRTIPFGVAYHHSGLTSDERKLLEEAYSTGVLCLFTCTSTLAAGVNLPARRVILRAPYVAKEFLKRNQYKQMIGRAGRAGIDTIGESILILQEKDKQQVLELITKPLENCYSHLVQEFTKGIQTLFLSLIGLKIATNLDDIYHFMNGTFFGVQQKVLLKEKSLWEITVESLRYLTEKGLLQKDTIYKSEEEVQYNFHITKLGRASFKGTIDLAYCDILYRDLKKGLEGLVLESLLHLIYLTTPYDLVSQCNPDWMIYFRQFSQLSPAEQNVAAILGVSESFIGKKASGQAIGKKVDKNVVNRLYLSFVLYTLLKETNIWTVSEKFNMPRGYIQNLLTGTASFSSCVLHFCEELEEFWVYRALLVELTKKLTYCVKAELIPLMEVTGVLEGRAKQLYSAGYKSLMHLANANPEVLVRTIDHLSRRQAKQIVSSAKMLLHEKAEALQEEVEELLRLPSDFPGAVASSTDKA
The experiment in a line: co-IP; FLAG-HA-tagged bait stably expressed in HeLa S3; sequential anti-FLAG and anti-HA immunoprecipitation from nuclear extract; immunoblotting with specific antibodies; for HELQ with or without MMC (100 ng/ml, 18 h) and with or without Benzonase (50 U/ml).

The target of assay [2] is T2, GFP-tagged HELQ (HEK293T) (human) (UniProt Q8TDG4).
T2 sequence: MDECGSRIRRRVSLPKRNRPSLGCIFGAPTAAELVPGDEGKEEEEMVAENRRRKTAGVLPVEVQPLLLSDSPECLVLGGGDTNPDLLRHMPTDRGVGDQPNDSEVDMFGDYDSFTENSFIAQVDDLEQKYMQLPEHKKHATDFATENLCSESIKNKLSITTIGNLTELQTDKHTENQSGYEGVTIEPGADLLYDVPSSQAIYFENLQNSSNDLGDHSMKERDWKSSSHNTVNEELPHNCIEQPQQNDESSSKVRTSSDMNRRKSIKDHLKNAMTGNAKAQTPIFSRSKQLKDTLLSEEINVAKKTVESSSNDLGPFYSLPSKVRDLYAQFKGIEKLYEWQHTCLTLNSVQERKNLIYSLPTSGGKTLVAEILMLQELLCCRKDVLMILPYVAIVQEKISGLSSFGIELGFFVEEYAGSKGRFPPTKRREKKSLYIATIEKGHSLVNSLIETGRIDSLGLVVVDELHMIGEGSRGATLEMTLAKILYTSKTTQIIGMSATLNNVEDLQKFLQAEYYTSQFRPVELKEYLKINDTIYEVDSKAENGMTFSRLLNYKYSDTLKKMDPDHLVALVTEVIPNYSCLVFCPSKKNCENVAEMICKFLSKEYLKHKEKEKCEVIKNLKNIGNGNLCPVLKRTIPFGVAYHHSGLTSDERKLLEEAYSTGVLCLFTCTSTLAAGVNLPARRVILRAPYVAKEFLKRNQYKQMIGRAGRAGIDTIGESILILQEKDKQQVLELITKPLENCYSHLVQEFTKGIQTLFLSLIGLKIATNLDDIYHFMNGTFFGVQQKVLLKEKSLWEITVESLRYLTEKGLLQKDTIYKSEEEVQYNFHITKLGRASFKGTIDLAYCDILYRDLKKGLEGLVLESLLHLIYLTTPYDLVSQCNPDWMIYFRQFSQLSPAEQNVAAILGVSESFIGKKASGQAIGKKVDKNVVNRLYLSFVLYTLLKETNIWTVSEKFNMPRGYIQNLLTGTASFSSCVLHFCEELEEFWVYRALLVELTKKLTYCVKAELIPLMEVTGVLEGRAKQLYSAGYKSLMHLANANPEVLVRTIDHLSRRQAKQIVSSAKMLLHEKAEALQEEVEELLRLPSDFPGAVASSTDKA
The experiment in a line: co-IP; HEK293T transiently co-transfected; sonicated whole-cell extract; anti-GFP agarose, 4 h, 4 °C, with or without 50 U/ml Benzonase; washes in 100 mM KCl buffer; immunoblotting.

The next assay deals with T3, HELQ K365M (human) (UniProt Q8TDG4).
T3 sequence: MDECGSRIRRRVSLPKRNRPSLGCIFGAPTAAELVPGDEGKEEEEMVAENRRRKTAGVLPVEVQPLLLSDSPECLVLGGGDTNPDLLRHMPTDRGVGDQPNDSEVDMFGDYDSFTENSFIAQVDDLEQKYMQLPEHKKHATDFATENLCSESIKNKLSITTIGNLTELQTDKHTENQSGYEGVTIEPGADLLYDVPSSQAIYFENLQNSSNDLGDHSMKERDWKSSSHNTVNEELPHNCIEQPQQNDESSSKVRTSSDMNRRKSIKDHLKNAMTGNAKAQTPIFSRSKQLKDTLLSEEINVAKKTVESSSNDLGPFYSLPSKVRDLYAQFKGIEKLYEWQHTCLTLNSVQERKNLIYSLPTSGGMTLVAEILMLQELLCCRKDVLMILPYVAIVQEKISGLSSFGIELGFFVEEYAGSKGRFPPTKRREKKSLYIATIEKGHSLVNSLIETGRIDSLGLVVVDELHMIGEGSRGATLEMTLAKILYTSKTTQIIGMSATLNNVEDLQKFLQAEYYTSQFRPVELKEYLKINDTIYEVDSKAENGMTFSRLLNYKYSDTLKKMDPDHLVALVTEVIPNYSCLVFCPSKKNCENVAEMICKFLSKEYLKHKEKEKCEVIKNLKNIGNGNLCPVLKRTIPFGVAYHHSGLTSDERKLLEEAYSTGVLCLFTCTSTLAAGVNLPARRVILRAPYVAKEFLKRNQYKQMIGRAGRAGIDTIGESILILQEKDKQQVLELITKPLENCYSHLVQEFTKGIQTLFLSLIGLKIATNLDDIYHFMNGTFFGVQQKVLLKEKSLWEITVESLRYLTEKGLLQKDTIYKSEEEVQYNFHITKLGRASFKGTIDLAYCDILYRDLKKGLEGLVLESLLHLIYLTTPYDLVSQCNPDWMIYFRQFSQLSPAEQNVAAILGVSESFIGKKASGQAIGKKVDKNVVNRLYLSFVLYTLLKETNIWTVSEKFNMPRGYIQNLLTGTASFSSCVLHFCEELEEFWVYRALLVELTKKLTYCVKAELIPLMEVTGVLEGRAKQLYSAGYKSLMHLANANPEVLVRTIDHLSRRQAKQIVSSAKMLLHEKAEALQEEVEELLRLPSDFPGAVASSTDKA
The assay is described as above.

These are yes or no findings as the source states them, for the method shown. In cells and extracts the contact can be indirect. Some binding calls cover weakened binding; strength is not graded here. Sequences can lack the tags named with a protein.

As for “ATR (endogenous, HeLa S3) (from UniProt Q13535 1-2644) (enzyme)”, in assay [1], the binding result was “binds”.
As to “ATR (endogenous, HEK293T) (from UniProt Q13535 1-2644) (enzyme)”, the binding result (in assay [2]; with HELQ K365M (human)) was “binds” throughout.

B1: DsRed-Monomer-tagged RAD51B (HEK293T) (protein, UniProt O15315 1-384)
chain: MGSKKLKRVGLSQELCDRLSRHQILTCQDFLCLSPLELMKVTGLSYRGVHELLCMVSRACAPKMQTAYGIKAQRSADFSPAFLSTTLSALDEALHGGVACGSLTEITGPPGCGKTQFCIMMSILATLPTNMGGLEGAVVYIDTESAFSAERLVEIAESRFPRYFNTEEKLLLTSSKVHLYRELTCDEVLQRIESLEEEIISKGIKLVILDSVASVVRKEFDAQLQGNLKERNKFLAREASSLKYLAEEFSIPVILTNQITTHLSGALASQADLVSPADDLSLSEGTSGSSCVIAALGNTWSHSVNTRLILQYLDSERRQILIAKSPLAPFTSFVYTIKEEGLVLQETTFCSVTQAELNWAPEILPPQPPEQLGLQMCHHTQLIF
With B1, the binding result (in assay [2]; with HELQ K365M (human)) was “binds” each time.

B2: RAD51B (protein, UniProt O15315 1-384)
chain: MGSKKLKRVGLSQELCDRLSRHQILTCQDFLCLSPLELMKVTGLSYRGVHELLCMVSRACAPKMQTAYGIKAQRSADFSPAFLSTTLSALDEALHGGVACGSLTEITGPPGCGKTQFCIMMSILATLPTNMGGLEGAVVYIDTESAFSAERLVEIAESRFPRYFNTEEKLLLTSSKVHLYRELTCDEVLQRIESLEEEIISKGIKLVILDSVASVVRKEFDAQLQGNLKERNKFLAREASSLKYLAEEFSIPVILTNQITTHLSGALASQADLVSPADDLSLSEGTSGSSCVIAALGNTWSHSVNTRLILQYLDSERRQILIAKSPLAPFTSFVYTIKEEGLVLQETTFCSVTQAELNWAPEILPPQPPEQLGLQMCHHTQLIF
Turning to B2, the binding result in assay [1] is “binds”.

B3: XRCC2 (endogenous, HeLa S3) (protein, UniProt O43543 1-280)
chain: MCSAFHRAESGTELLARLEGRSSLKEIEPNLFADEDSPVHGDILEFHGPEGTGKTEMLYHLTARCILPKSEGGLEVEVLFIDTDYHFDMLRLVTILEHRLSQSSEEIIKYCLGRFFLVYCSSSTHLLLTLYSLESMFCSHPSLCLLILDSLSAFYWIDRVNGGESVNLQESTLRKCSQCLEKLVNDYRLVLFATTQTIMQKASSSSEEPSHASRRLCDVDIDYRPYLCKAWQQLVKHRMFFSKQDDSQSSNQFSLVSRCLKSNSLKKHFFIIGESGVEFC
With B3, in assay [1], the binding entry is “binds”.

B4: XRCC2 (endogenous, HEK293T) (protein, UniProt O43543 1-280)
chain: MCSAFHRAESGTELLARLEGRSSLKEIEPNLFADEDSPVHGDILEFHGPEGTGKTEMLYHLTARCILPKSEGGLEVEVLFIDTDYHFDMLRLVTILEHRLSQSSEEIIKYCLGRFFLVYCSSSTHLLLTLYSLESMFCSHPSLCLLILDSLSAFYWIDRVNGGESVNLQESTLRKCSQCLEKLVNDYRLVLFATTQTIMQKASSSSEEPSHASRRLCDVDIDYRPYLCKAWQQLVKHRMFFSKQDDSQSSNQFSLVSRCLKSNSLKKHFFIIGESGVEFC
As for B4, in assay [2], the binding entry is “binds”.

B5: Flag-tagged XRCC2 (HEK293T) (protein, UniProt O43543 1-280)
chain: MCSAFHRAESGTELLARLEGRSSLKEIEPNLFADEDSPVHGDILEFHGPEGTGKTEMLYHLTARCILPKSEGGLEVEVLFIDTDYHFDMLRLVTILEHRLSQSSEEIIKYCLGRFFLVYCSSSTHLLLTLYSLESMFCSHPSLCLLILDSLSAFYWIDRVNGGESVNLQESTLRKCSQCLEKLVNDYRLVLFATTQTIMQKASSSSEEPSHASRRLCDVDIDYRPYLCKAWQQLVKHRMFFSKQDDSQSSNQFSLVSRCLKSNSLKKHFFIIGESGVEFC
B5: the binding result in assay [2] is on record as “binds”.

B6: RAD51C (protein, UniProt O43502 1-376)
chain: MRGKTFRFEMQRDLVSFPLSPAVRVKLVSAGFQTAEELLEVKPSELSKEVGISKAEALETLQIIRRECLTNKPRYAGTSESHKKCTALELLEQEHTQGFIITFCSALDDILGGGVPLMKTTEICGAPGVGKTQLCMQLAVDVQIPECFGGVAGEAVFIDTEGSFMVDRVVDLATACIQHLQLIAEKHKGEEHRKALEDFTLDNILSHIYYFRCRDYTELLAQVYLLPDFLSEHSKVRLVIVDGIAFPFRHDLDDLSLRTRLLNGLAQQMISLANNHRLAVILTNQMTTKIDRNQALLVPALGESWGHAATIRLIFHWDRKQRLATLYKSPSQKECTVLFQIKPQGFRDTVVTSACSLQTEGSLSTRKRSRDPEEEL
B6: the binding result in assay [1] is recorded as “binds”.
